At least one peptide structure holds a part that was inferred or is arguable (an end, a ring closure or a residue). Where a SMILES comes first, the peptide text is derived from it.
Experiments:
B16F10 melanoma cells = assay: Melanin level assay in B16F10 cells; format: cell-based, mouse; settings: different concentrations of peptide, 48 or 72 hours, absorbance at 405 nm vs synthetic melanin standard
[1] = tested on: tyrosinase activity in B16F10 cells; assay: Tyrosinase assay on lysates of treated B16F10 cells; format: cell-based, mouse; settings: B16F10 cells treated with 5-50 μg/ml peptide for 48 or 72 hours; cell lysate with L-DOPA, absorbance 490 nm

SMILES: C[C@H](NC(=O)[C@H](CO)NC(=O)[C@@H](N)CC(N)=O)C(=O)N[C@H](C(=O)N[C@@H](CCC(=O)O)C(=O)N[C@@H](CCCNC(=N)N)C(=O)N[C@@H](CCC(=O)O)C(=O)O)[C@@H](C)O [peptide of SEQ ID NO: 1, AsnSerAlaThrGluArgGlu] (H-NSATERE-OH)
- melanin synthesis / melanin level (B16F10 melanoma cells): significantly increased melanin synthesis in a concentration-dependent manner
- tyrosinase activity [1]: significantly increased tyrosinase activity
